These results are taken from PMC12398856, “A GLP-1 analogue optimized for cAMP-biased signaling improves weight loss in obese mice” (Molecular Metabolism, 2025).

Chains of the proteins cited; added tags and fusions are not shown. Residues count along the entry.
UniProt P43220, residues 24-463: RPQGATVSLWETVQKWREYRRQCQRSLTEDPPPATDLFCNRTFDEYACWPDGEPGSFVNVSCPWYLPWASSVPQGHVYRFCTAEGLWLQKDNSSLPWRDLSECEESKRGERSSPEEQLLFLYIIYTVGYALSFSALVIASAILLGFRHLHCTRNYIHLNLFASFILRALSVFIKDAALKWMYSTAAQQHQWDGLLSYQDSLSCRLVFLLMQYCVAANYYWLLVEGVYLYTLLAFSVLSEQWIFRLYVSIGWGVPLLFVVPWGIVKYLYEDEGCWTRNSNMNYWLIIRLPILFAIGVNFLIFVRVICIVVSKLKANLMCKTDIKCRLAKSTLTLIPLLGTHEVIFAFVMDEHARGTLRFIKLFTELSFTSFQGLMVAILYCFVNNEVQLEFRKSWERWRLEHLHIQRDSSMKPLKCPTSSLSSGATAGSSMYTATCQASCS
UniProt P32121: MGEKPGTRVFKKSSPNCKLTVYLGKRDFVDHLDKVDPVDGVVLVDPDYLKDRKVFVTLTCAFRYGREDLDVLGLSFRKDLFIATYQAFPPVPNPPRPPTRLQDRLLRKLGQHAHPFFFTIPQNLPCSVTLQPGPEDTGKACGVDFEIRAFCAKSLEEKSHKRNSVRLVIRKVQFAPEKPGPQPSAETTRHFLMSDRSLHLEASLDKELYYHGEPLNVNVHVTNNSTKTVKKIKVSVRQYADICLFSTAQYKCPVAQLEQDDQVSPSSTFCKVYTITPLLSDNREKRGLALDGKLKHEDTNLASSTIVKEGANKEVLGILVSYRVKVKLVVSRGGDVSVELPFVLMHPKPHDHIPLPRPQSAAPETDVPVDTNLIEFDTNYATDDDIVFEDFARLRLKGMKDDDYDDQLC

The target in assay [1] is human GLP-1 receptor (hGLP-1R) (human) (UniProt P43220). The experiment in a line: FRET or BRET; as a1, with NNC5840 as the ligand that stimulates the receptor. Background: In BRET a luciferase serves as donor, and the signal depends on an acceptor being close.
The target is the same in assay [2]. The experiment in a line: FRET or BRET; live HEK293T cells transiently transfected with hGLP-1R constructs and sensors; ligand-induced recruitment after native GLP-1(7-36), semaglutide or NNC5840; BRET read every 60 s, iAUC for dose-response; PBS with coelenterazine-h or NanoGlo.

No constants are given. Whether binding was seen depends on the method and setting. Binding seen in cells or lysates may run through a third protein. Some results given as binding are weak or reduced against the parent protein; the word gives no strength.

For “β-arrestin 2 (from UniProt P32121 1-409)”, the binding result is recorded as “binds weakly” in assay [1] and “binds” in assay [2].
